Experiment in all cases: pull-down; GST fusion proteins with portions of PLC-β3-CT mixed with precleared lysates of Ba/F3 cells (with or without IL-3), 2 h at 4°C; lysis buffer 20 mM Tris-HCl pH 8.0, 150 mM NaCl, 1 mM EDTA, 1% Nonidet P-40; six washes; immunoblot with anti-Stat5 or anti-SHP-1; only the target purified
For orientation: Immunoblotting shows a protein as a band on a membrane.

By UniProt entry, the sequences of proteins in these tests, tags left out.
UniProt P29351: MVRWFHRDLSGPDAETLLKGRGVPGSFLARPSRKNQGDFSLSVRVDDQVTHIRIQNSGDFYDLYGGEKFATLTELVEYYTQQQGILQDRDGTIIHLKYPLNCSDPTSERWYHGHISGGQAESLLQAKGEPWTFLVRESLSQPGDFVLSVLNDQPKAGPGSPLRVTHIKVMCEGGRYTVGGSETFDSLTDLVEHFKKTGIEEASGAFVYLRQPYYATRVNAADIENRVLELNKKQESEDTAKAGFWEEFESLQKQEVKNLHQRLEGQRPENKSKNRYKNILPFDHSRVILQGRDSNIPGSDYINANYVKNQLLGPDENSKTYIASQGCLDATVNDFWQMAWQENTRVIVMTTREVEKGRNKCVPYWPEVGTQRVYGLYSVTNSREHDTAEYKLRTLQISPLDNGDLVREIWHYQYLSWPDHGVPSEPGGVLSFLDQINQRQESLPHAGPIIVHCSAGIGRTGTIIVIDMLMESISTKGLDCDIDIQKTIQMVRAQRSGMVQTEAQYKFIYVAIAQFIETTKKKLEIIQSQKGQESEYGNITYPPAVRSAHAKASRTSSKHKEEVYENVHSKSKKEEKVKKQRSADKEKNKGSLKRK

Assay [1] deals with T1, GST fusion protein of PLC-β3 residues 983–1234 (mouse) (UniProt P51432).
T1 sequence: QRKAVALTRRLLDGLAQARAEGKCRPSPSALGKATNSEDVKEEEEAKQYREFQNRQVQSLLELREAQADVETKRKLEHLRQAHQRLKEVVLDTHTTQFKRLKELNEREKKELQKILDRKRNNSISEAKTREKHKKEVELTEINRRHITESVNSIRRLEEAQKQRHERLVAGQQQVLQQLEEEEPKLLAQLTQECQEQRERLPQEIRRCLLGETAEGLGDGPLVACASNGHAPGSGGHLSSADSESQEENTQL

The target of assay [2] is T2, PLC-β3 peptide (1114–1132) (mouse) (UniProt P51432).
T2 sequence: KHKKEVELTEINRRHITES

Assay [3] deals with T3, PLC-β3 region c (positions 1032–1069) (mouse) (UniProt P51432).
T3 sequence: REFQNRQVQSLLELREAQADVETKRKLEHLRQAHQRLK

For assay [4], the target named is T4, PLC-β3 region d (positions 1182–1209) (mouse) (UniProt P51432).
T4 sequence: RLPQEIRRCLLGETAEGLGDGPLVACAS

These are yes or no findings as the source states them, for the method shown. Binding seen in cells or lysates may run through a third protein. Some entries that bind do so weakly or less than the wild type. For some of these results: Tags and fused reporters may be left off the sequences shown.

For “SH2 domain-containing protein phosphatase SHP-1 (from UniProt P29351 1-595) (enzyme)”, the binding result is given as “binds” in assay [1], “no binding” in assay [2], “binds” in assay [3] and “binds” in assay [4].
